The record followed here is publication PMC7819943, “Rice protein-binding microarrays: a tool to detect cis-acting elements near promoter regions in rice”.

Chains of the proteins cited; added tags and fusions are not shown.
UniProt Q0JBA9, entry or part of it: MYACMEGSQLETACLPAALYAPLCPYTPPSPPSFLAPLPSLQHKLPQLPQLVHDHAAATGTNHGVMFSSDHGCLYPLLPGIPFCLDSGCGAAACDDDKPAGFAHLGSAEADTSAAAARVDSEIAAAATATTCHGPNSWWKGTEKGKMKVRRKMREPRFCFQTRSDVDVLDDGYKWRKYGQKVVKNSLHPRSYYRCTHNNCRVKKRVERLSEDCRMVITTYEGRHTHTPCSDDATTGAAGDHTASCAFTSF

Some of the results follow.

The test deals with OsWRKY34 (Oryza sativa, UniProt Q0JBA9 1-250). As to the kind of experiment: protein-binding microarray (RPBM); PBS, 2% BSA, 51.3 ng/ul salmon testes DNA, 50 uM zinc acetate, 200 nM TF, 25 C, 1 h; high values mean tight binding. As to conditions: protein: recombinant; tags: N-terminal polyhistidine and DsRed monomer fusion (pET32a); label: CyDye5-dUTP incorporated in the synthesized complementary strand; 3' TTTTT single-stranded linker to array surface; dsDNA, one strand shown. In a few lines: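 For the binding signal, per-feature fluorescence intensity was read in arbitrary units on an Axon 4000B scanner. Before scanning, a 2% BSA-blocked custom Agilent array made double-stranded with Cy5-dUTP was washed after 1 h at 25 °C with 200 nM protein and 50 µM zinc acetate. The proteins were Ni–NTA-purified transcription factors with N-terminal polyhistidine and DsRed fusions, expressed in E. coli BL21-CodonPlus.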
As for “TACTGGCCGATAAGTACGCTCACCACTTCAACGTCGTCCACGGAGTCACCTAGTGCAG”, the binding signal is 10300 fluorescence intensity (a.u.). As for “ATGACCGATCCTACGATTGAAAAAGTTGACTGCGATATCTCGGAGTCACCTAGTGCAG”, the binding signal was 8050 fluorescence intensity (a.u.). Regarding “GAATCTTGTCACTCTCTCATCAATCTACACCCAATTTCCACGGAGTCACCTAGTGCAG”, the binding signal was 9010 fluorescence intensity (a.u.).

On to “TTACGTGGGCACACTGTCTCACTTTGTTTTGTCATTGTTCCGGAGTCACCTAGTGCAG”, for which the binding signal is 8640 fluorescence intensity (a.u.). For the sequence “CATGCGAAAAAAAGTCAACGGCGTCATCTATTAAAAAATGCGGAGTCACCTAGTGCAG”, the binding signal is 10500 fluorescence intensity (a.u.). With “TCGCAGGGCAGGAAGCTGTCGTAGCAGACGGGGTGGGGATCGGAGTCACCTAGTGCAG” the figure was 10300 fluorescence intensity (a.u.); with “GCTTCATTTTTCTTGGCCATAACTTTGGCAACTTAGCCACCGGAGTCACCTAGTGCAG”, 9160 fluorescence intensity (a.u.); with “ACAGAGCCGGCGCCGTCATTCTTTTCTCCACGTCGCTGCACGGAGTCACCTAGTGCAG”, 8670 fluorescence intensity (a.u.). With “CCTCGTCAATCCTCTACATCCTGCGTTTCTTCCCCGTATACGGAGTCACCTAGTGCAG” the figure was 12800 fluorescence intensity (a.u.); with “CCTCCCTCCATCCCGCTTTTGGCCATTTCGGCATCCACTTCGGAGTCACCTAGTGCAG”, 9130 fluorescence intensity (a.u.). With “GTTGCCTTTTTTAGAGCTCTGTATCACCGCTTCTTGTGCGCGGAGTCACCTAGTGCAG” the figure was 11700 fluorescence intensity (a.u.); with “ATGTGCTATTATGTGTTGCGAGCACTAGTGCCTAACGTGACGGAGTCACCTAGTGCAG”, 8850 fluorescence intensity (a.u.); with “TAAGTGATTTACTGCTAGCTTGTACCTTTTCTGTTTGTAACGGAGTCACCTAGTGCAG”, 9040 fluorescence intensity (a.u.). Turning to “GGCCACGGCGGGTTAGGGAGGTGGGTGGTGCCGCCGGTCGCGGAGTCACCTAGTGCAG”, the binding signal was 11500 fluorescence intensity (a.u.). With “CCCATGGTTTCCCTGTAGGCCACAGTACTACGACCTATACCGGAGTCACCTAGTGCAG”, the binding signal is 8150 fluorescence intensity (a.u.). As to “GTTGGGGAGCGCGGCGGGGCGTCGGAGGAGTTGACAGGAGCGGAGTCACCTAGTGCAG”, the binding signal is 8910 fluorescence intensity (a.u.).

Take “TTTGGCGGGGTCGATACAGGTTGAAGGAATGGATAACTCACGGAGTCACCTAGTGCAG”: the binding signal is 13500 fluorescence intensity (a.u.).

Consider “CTCTCCTGCCTGCTTCGTCTACTCCTCTCCCAACTCCGATCGGAGTCACCTAGTGCAG”, for which the binding signal is 12600 fluorescence intensity (a.u.). In the case of “AAATTACGCTTTTGGCCACATATTTGCTCTAAGCTTTTTCCGGAGTCACCTAGTGCAG”, the binding signal is 8270 fluorescence intensity (a.u.). “GTGACTTCCGTTTTCACCGCTCAAGCGAAACTTTATCCTCCGGAGTCACCTAGTGCAG”: the binding signal was 8590 fluorescence intensity (a.u.). For “GCAAATCATCGCCTGTATTGTCCTGCCCTATCACTGCACACGGAGTCACCTAGTGCAG”, the binding signal was 8220 fluorescence intensity (a.u.). For the sequence “TTAATACCTGCTTTGGGGTGGGAGTTGGGAGACTATCTCACGGAGTCACCTAGTGCAG”, the binding signal was 11500 fluorescence intensity (a.u.). As to “CCTTCTCAGCGACGTGTGGCATCTTGCTCCAGATCTTCTACGGAGTCACCTAGTGCAG”, the binding signal was 10400 fluorescence intensity (a.u.). With “TACTACGTAAAGTTTATTTATTTTTTATGTTCGTATGATCCGGAGTCACCTAGTGCAG”, the binding signal is 9580 fluorescence intensity (a.u.). With “GAGCACTACATCTCTCGTCCAACGCCAAACTCTCTCTCTCCGGAGTCACCTAGTGCAG” the figure was 13400 fluorescence intensity (a.u.); with “ACTCTCCGCGAAGTTCATTTCCCCTCAAATTTAATATTTTCGGAGTCACCTAGTGCAG”, 8550 fluorescence intensity (a.u.); with “CTGTATTTGACTGTTACTGCTTTTGGATTTTGTTTCATTTCGGAGTCACCTAGTGCAG”, 10800 fluorescence intensity (a.u.).

Take “GATGCGAAACGTGGCCCGAGCCTCCGCCTACACCGACCCGCGGAGTCACCTAGTGCAG”: the binding signal is 8390 fluorescence intensity (a.u.). For the sequence “TCTTTTCCACCGCTTTTTTTTTTGTTTCCTCACGTGGTTTCGGAGTCACCTAGTGCAG”, the binding signal is 8320 fluorescence intensity (a.u.). Under “TCGCGCGTGTCACTGGGTTTGGGTTGGGTCTCTCTCTCTCCGGAGTCACCTAGTGCAG” stands 18400 fluorescence intensity (a.u.); under “GGTTTCGTAGTTTGAGTATTTTTTTTATCAATTCATTCCCCGGAGTCACCTAGTGCAG”, 9810 fluorescence intensity (a.u.).

As for “GAGAGGTAGCGGGCTGGGTTAGGACTGAAATGGAACGAATCGGAGTCACCTAGTGCAG”, the binding signal is 8550 fluorescence intensity (a.u.).

Turning to “CAGCGTGTGTGCACTTACCTGCTCGATCGATCTGCACCTCCGGAGTCACCTAGTGCAG”, the binding signal was 8900 fluorescence intensity (a.u.). “GTGCATTCCCTACTGTTATCACACTTGCCAACAGCGCTGGCGGAGTCACCTAGTGCAG”: the binding signal is 8520 fluorescence intensity (a.u.). For “CTACCCAATCCATCCATCCGCCGCGCCTCTCTCTCCTTCACGGAGTCACCTAGTGCAG”, the binding signal was 11000 fluorescence intensity (a.u.). On to “CGCGTATGCGCGGGCTACTTTCCTAGTTTTCTATAAAACCCGGAGTCACCTAGTGCAG”, for which the binding signal is 8160 fluorescence intensity (a.u.).

In the case of “TCAAACGCACGCCACGCGACGCGACGCAGCCCAGCTCAACCGGAGTCACCTAGTGCAG”, the binding signal was 8660 fluorescence intensity (a.u.). With “CCGGGCTCCGTCGCCACGTACGCGGCCGGCTCTCCCTATACGGAGTCACCTAGTGCAG” the figure was 9030 fluorescence intensity (a.u.); with “ACATCTTATCTACAACGTGTCTTTTATTTCCACCATGTACCGGAGTCACCTAGTGCAG”, 8300 fluorescence intensity (a.u.). With “GCTATGTAATGTCCCATCCGTGCTGTATAGTTTGGGTTTTCGGAGTCACCTAGTGCAG” the figure was 17200 fluorescence intensity (a.u.); with “TCCGCATCCAACTTTGATTGTCCGTCTTATTTGAAATTTTCGGAGTCACCTAGTGCAG”, 10800 fluorescence intensity (a.u.); with “ATTCAGTTAATTTTGACTTTTTTTCCATCAATCATCAAGACGGAGTCACCTAGTGCAG”, 9670 fluorescence intensity (a.u.).
